# Experimental data published in patent publication US4490291A, “Nonapeptide amides” (Takeda Chemical Industries, Ltd., priority 1973, dated 1984).
# Not every detail of the peptide structures is certain; ends, links or a residue may be inferred. Non-standard residues stand in square brackets, D forms with d. Residues, ends and D or L forms follow the SMILES beside them. *: point of attachment. pGlu = O=C1CC[C@@H](C(=O)O)N1; NHPr = CCCN*
# System: Sprague-Dawley rats (4-day cycling female)
# Assay: Ovulation-inducing activity in rats, ED50 compared with LH-RH
# Type: in vivo
# Conditions: subcutaneous injection at 14:30 on the day of diestrous; ovulated ova in oviduct examined next morning; natural LH-RH control = 100%
# Procedure: Ovulation-inducing activity is determined in Sprague-Dawley rats (4-day cycling female) in which the injection of the compound was made subcutaneously at 14:30 on the day of diestrous, and the ovulated ova in the ampilla of the oviduct were examined on the morning of the next day. The results (ED50) were compared with that (ED50) of LH-RH itself. The assay results on the object compounds are as follows.
row,Compound,Relative ovulation-inducing activity (ED50 compared with that of LH-RH itself)
1,CCCNC(=O)[C@@H]1CCCN1C(=O)[C@H](CCCNC(=N)N)NC(=O)[C@H](CC(C)C)NC(=O)[C@@H](C)NC(=O)[C@H](Cc1ccccc1)NC(=O)[C@H](CO)NC(=O)[C@H](Cc1c[nH]c2ccccc12)NC(=O)[C@H](Cc1c[nH]cn1)NC(=O)[C@@H]1CCC(=O)N1 [His Phe Leu n-propyl] ([pGlu]HWSF[dA]LRP-NHPr),"2,900%"
2,"CC(C)C[C@H](NC(=O)[C@@H](C)NC(=O)[C@H](Cc1ccc(O)cc1)NC(=O)[C@H](CO)NC(=O)[C@H](Cc1c[nH]c2ccccc12)NC(=O)[C@H](Cc1c[nH]cn1)NC(=O)[C@@H]1CCC(=O)N1)C(=O)N[C@@H](CCCNC(=N)N)C(=O)N1CCC[C@H]1C(=O)NCCO [His Tyr Leu 2-hydroxy-ethyl, (Pyr)Glu--His--Trp--Ser--Tyr--(D)--Ala--Leu--Arg--Pro--NH--CH2 --CH2 --OH]","4,300%"
3,"CC(C)C[C@H](NC(=O)[C@@H](C)NC(=O)[C@H](Cc1ccc(O)cc1)NC(=O)[C@H](CO)NC(=O)[C@H](Cc1c[nH]c2ccccc12)NC(=O)[C@H](Cc1c[nH]cn1)NC(=O)[C@@H]1CCC(=O)N1)C(=O)N[C@@H](CCCNC(=N)N)C(=O)N1CCC[C@H]1C(=O)NC(C)C [His Tyr Leu iso-propyl, (Pyr)Glu--His--Trp--Ser--Tyr--(D)--Ala--Leu--Arg--Pro--NH--CH(CH3)2]","3,600%"
4,"CCCNC(=O)[C@@H]1CCCN1C(=O)[C@H](CCCNC(=N)N)NC(=O)[C@H](CC(C)C)NC(=O)[C@@H](C)NC(=O)[C@H](Cc1ccc(O)cc1)NC(=O)[C@H](CO)NC(=O)[C@H](Cc1c[nH]c2ccccc12)NC(=O)[C@H](Cc1c[nH]cn1)NC(=O)[C@@H]1CCC(=O)N1 [His Tyr Leu n-propyl, (Pyr)Glu--His--Trp--Ser--Tyr--(D)--Ala--Leu--Arg--Pro--NH--CH2 --CH2 --CH3]","4,800%"
